± gives the standard deviation. This is a selection; strong and weak results do not stand in their true shares. Many entries were measured with a wide error.

Assay [1] deals with MILI (PIWIL2) piRISC loaded with piRNA #1 (26 nt). As to the kind of experiment: pre-steady-state target cleavage rate (min^-1); MIWI and MILI are mouse PIWI proteins and EfPiwi is from a freshwater sponge; tags in brackets are library labels; higher = faster piRNA-guided slicing of the target. To be noted: guide: piRNA #1 5'p-UGAGGUAGUAGGUUGUAUAGUAUCCA; auxiliary factor: 500 nM mouse GTSF1. In a few lines: (§1)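 The pre-steady-state cleavage rate was obtained by Cleave-'n-Seq with a burst-and-steady-state fit. A transcribed, DNA-blocked target RNA library (0.1 nM) was mixed with 1 nM active affinity-purified piRISC carrying one synthetic guide, with or without 500 nM GTSF1 partner protein, in HEPES–potassium acetate buffer at 33 °C for 0–8 or 0–960 min. Uncleaved targets were sequenced and normalised to depth and to weakly complementary targets, with three trials pooled and k3 capped at 0.0001 min^-1.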

Assay [2] deals with MIWI (PIWIL1) piRISC loaded with piRNA #1 (30 nt). The description is as above. The settings on record: guide: piRNA #1 5'p-UGAGGUAGUAGGUUGUAUAGUAUCCAGAGG; auxiliary factor: 500 nM mouse GTSF1. In short, it runs like this:
as §1

GGAGACCUAUGAUAUGUUCCUACUUCGUCA: the “pre-steady-state target cleavage rate” value is 0.000209 ± 0.019 in assay [1] and 0.000346 ± 0.0095 in assay [2].

As for GGAGACCUAUGAUAACAACCUACUACCCUCA, the “pre-steady-state target cleavage rate” value was found to be 0.00211 ± 0.0024 in assay [1] and 0.000956 ± 0.0043 in assay [2].

In the case of GGAGACCUAUCUAUACAACCUGACUACCUCA, the “pre-steady-state target cleavage rate” value turned out to be 0.00288 ± 0.0031 in assay [1] and 0.00102 ± 0.0059 in assay [2].

Turning to GGAGACCUAUGAAUUCAACCAACUACCUCA, the figures for the “pre-steady-state target cleavage rate” value in assay [1] and in assay [2] were 0.00123 ± 0.0045 and 0.00012 ± 0.019, respectively.

Take GGAGACCUAUGAUAUCAACCAAGUACCUCA: the “pre-steady-state target cleavage rate” value was found to be 0.000469 ± 0.0069 in assay [1] and 0.000505 ± 0.0042 in assay [2].

As to GGAGACCUAUCUAUACAUACCUACUACCUCA, the figures for the “pre-steady-state target cleavage rate” value in assay [1] and in assay [2] were 0.00118 ± 0.0072 and 0.000696 ± 0.011, respectively.

In the case of GGAGACCUAUGAAUACAACCUACUAGCUGA, the “pre-steady-state target cleavage rate” value in assay [1] came to 0.000867 ± 0.0072; in assay [2], 0.000295 ± 0.0076.

As to GGAGACCUAUGUAUACAACCUAGAACCUCA, the entries for the “pre-steady-state target cleavage rate” value in assay [1] and in assay [2] were 0.000881 ± 0.0052 and 0.000377 ± 0.0093, respectively.

Take GGAGACCUAUGAUAUCAACCUACUACAUCA: the “pre-steady-state target cleavage rate” value in assay [1] amounted to 0.000846 ± 0.0067; in assay [2], 0.00146 ± 0.0034.

Turning to GGAGACCUAUGAUAUGACACCUACUACCUCA, the “pre-steady-state target cleavage rate” value stood at 0.000989 ± 0.0076 in assay [1] and 0.000733 ± 0.005 in assay [2].

For GGAGACCUAUGAUAUCAACCUACUACCAUCA, the “pre-steady-state target cleavage rate” value in assay [1] was 0.001 ± 0.0066; in assay [2], 0.000177 ± 0.011.

As for “GGAGACCUAUGAUAUCAACCUACUACCUCC [g2:g15:cont:t1C]”, the “pre-steady-state target cleavage rate” value came to 0.00261 ± 0.0037 in assay [1] and 0.000865 ± 0.0056 in assay [2].

GGAGACCUAUGAAUCAACCUACUACCUCA: the “pre-steady-state target cleavage rate” value in assay [1] came out at 0.0017 ± 0.0036; in assay [2] it was 0.000788 ± 0.0055.

Regarding GGAGACCUAUGAAUACAACCUACAACCACA, the “pre-steady-state target cleavage rate” value in assay [1] is 0.00251 ± 0.0041; in assay [2], 0.000261 ± 0.011.

Turning to GGAGACCUAUGAUUUCAACCUACUACCACA, the “pre-steady-state target cleavage rate” value in assay [1] worked out at 0.000882 ± 0.0058; in assay [2], 0.000165 ± 0.014.

In the case of GGAGACCUAUGUAUACAAGGAACUACCUCA, the “pre-steady-state target cleavage rate” value worked out at 0.00296 ± 0.0028 in assay [1] and 0.000244 ± 0.0079 in assay [2].

Take GGAGACCUAUGAUAUCAACGUACUACGUCA: the “pre-steady-state target cleavage rate” value worked out at 0.00055 ± 0.01 in assay [1] and 0.000185 ± 0.014 in assay [2].

For GGAGACCUAUGAUAACAACCGUACUACCUCA, the “pre-steady-state target cleavage rate” value is 0.00235 ± 0.0036 in assay [1] and 0.000712 ± 0.007 in assay [2].

In the case of GGAGACCUAUGAUAUGUUCCAACUUCCUCA, the results for the “pre-steady-state target cleavage rate” value in assay [1] and in assay [2] were 0.000109 ± 0.024 and 0.00011 ± 0.015, respectively.

For the sequence GGAGACCUAUGAAUACAACCAACUUCCUCA, the results for the “pre-steady-state target cleavage rate” value in assay [1] and in assay [2] were 0.00215 ± 0.004 and 0.000974 ± 0.0072, respectively.

For GGAGACCUAUGAUAACAACCUAGAUCCUCA, the entries for the “pre-steady-state target cleavage rate” value in assay [1] and in assay [2] were 0.000746 ± 0.0072 and 0.000195 ± 0.012, respectively.

In the case of GGAGACCUAUGUAAACAACCUACUAGCUCA, the “pre-steady-state target cleavage rate” value stood at 0.00495 ± 0.0023 in assay [1] and 0.000998 ± 0.0057 in assay [2].

In the case of GGAGACCUAUGAUAUGUUGCUUCAACCUCA, the “pre-steady-state target cleavage rate” value in assay [1] was found to be 0.000314 ± 0.016; in assay [2], 0.000577 ± 0.0071.

Turning to “GGAGACCUAUGAUAUCAACCUACAUGGAGA [g8:g15:cont:t1A]”, the “pre-steady-state target cleavage rate” value in assay [1] is 0.000409 ± 0.013; in assay [2], 0.000224 ± 0.016.

Consider GGAGACCUAUGAUAUGUUCCAACUAGCUCA, for which the “pre-steady-state target cleavage rate” value worked out at 0.00033 ± 0.016 in assay [1] and 0.000303 ± 0.018 in assay [2].

With GGAGACCUAACUAUACAAGGAACUACCUCA, the “pre-steady-state target cleavage rate” value in assay [1] was found to be 0.00395 ± 0.0051; in assay [2], 0.000571 ± 0.0098.

For GGAGACCUAACUAUACAAGCCUACUACCUCA, the entries for the “pre-steady-state target cleavage rate” value in assay [1] and in assay [2] were 0.000757 ± 0.013 and 0.000231 ± 0.023, respectively.

For GGAGACCUAUGUAUAGAACCAACUACCUCA, the “pre-steady-state target cleavage rate” value was 0.00128 ± 0.0039 in assay [1] and 0.000347 ± 0.0066 in assay [2].

With GGAGACCUAUGAAUUCAACCUUCUACCUCA, the “pre-steady-state target cleavage rate” value in assay [1] was 0.000605 ± 0.006; in assay [2] it was 0.000298 ± 0.0079.

On to GGAGACCUAUCUAUACGAACCUACUACCUCA, for which the “pre-steady-state target cleavage rate” value in assay [1] worked out at 0.000412 ± 0.015; in assay [2], 0.000205 ± 0.012.
